Record: PubChem BioAssay AID1508597 (Cure First, 2020)
Screen: 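Survival screen with siRNA in ovarian cancer cells derived from patients, with or without rucaparib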 (primary screen). Cell system: human ovarian carcinoma lines grown from tumours: OCI-P5x (papillary serous) and OCI-C5x (clear cell). Reagents: siRNA pool against human genes, 1.25 pmol siRNA per well. Duration: 72 h or 96 h, depending on the cell culture. Challenge: rucaparib 20 µM (about IC30) or vehicle, present until read-out. Read-out: 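Luminescent ATP-based viability assay read 72 or 96 h after transfection, depending on culture, given as normalised percent viability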. Scale: viability, normalised: higher = more viable cells remaining. Call rule: 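Active when normalised viability falls below 80 percent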. Calls: active = viability under 80%; inactive = viability 80% or more.
Here is a random part of about 2,100 deposited reagents. 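Calls flag viability under 80% in either arm, not effects specific to rucaparib; the reference for percent is not stated.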 A number with no mark means an inactive call. The record does not give: the 100% reference.

viability, normalised (%) | target gene | rucaparib or vehicle | cell line | technical replicate
40.4 (active) | PDE12 (phosphodiesterase 12) | Rucaparib | OCI-C5x (clear cell) | 1
39.2 (active) | PDE12 (phosphodiesterase 12) | Rucaparib | OCI-C5x (clear cell) | 2
43.2 (active) | PDE12 (phosphodiesterase 12) | Rucaparib | OCI-C5x (clear cell) | 3
80.7 | PDE12 (phosphodiesterase 12) | Rucaparib | OCI-P5x (serous) | 1
65.4 (active) | PDE12 (phosphodiesterase 12) | Rucaparib | OCI-P5x (serous) | 2
62.1 (active) | PDE12 (phosphodiesterase 12) | Rucaparib | OCI-P5x (serous) | 3
48.9 (active) | PDE12 (phosphodiesterase 12) | Vehicle | OCI-C5x (clear cell) | 1
46.2 (active) | PDE12 (phosphodiesterase 12) | Vehicle | OCI-C5x (clear cell) | 2
43.7 (active) | PDE12 (phosphodiesterase 12) | Vehicle | OCI-C5x (clear cell) | 3
68.2 (active) | PDE12 (phosphodiesterase 12) | Vehicle | OCI-P5x (serous) | 1
57.5 (active) | PDE12 (phosphodiesterase 12) | Vehicle | OCI-P5x (serous) | 2
135 | PDE12 (phosphodiesterase 12) | Vehicle | OCI-P5x (serous) | 3
62.2 (active) | KDM6B (lysine demethylase 6B) | Rucaparib | OCI-C5x (clear cell) | 1
36.8 (active) | KDM6B (lysine demethylase 6B) | Rucaparib | OCI-C5x (clear cell) | 2
45 (active) | KDM6B (lysine demethylase 6B) | Rucaparib | OCI-C5x (clear cell) | 3
58.8 (active) | KDM6B (lysine demethylase 6B) | Rucaparib | OCI-P5x (serous) | 1
56.4 (active) | KDM6B (lysine demethylase 6B) | Rucaparib | OCI-P5x (serous) | 2
53.2 (active) | KDM6B (lysine demethylase 6B) | Rucaparib | OCI-P5x (serous) | 3
46.6 (active) | KDM6B (lysine demethylase 6B) | Vehicle | OCI-C5x (clear cell) | 1
56.1 (active) | KDM6B (lysine demethylase 6B) | Vehicle | OCI-C5x (clear cell) | 2
54 (active) | KDM6B (lysine demethylase 6B) | Vehicle | OCI-C5x (clear cell) | 3
67.7 (active) | KDM6B (lysine demethylase 6B) | Vehicle | OCI-P5x (serous) | 1
73.7 (active) | KDM6B (lysine demethylase 6B) | Vehicle | OCI-P5x (serous) | 2
64.2 (active) | KDM6B (lysine demethylase 6B) | Vehicle | OCI-P5x (serous) | 3

7 neighbouring records already listed, quoted:
viability, normalised (%) | target gene | rucaparib or vehicle | cell line | technical replicate
39.2 (active) | PDE12 (phosphodiesterase 12) | Rucaparib | OCI-C5x (clear cell) | 2
43.2 (active) | PDE12 (phosphodiesterase 12) | Rucaparib | OCI-C5x (clear cell) | 3
80.7 | PDE12 (phosphodiesterase 12) | Rucaparib | OCI-P5x (serous) | 1
65.4 (active) | PDE12 (phosphodiesterase 12) | Rucaparib | OCI-P5x (serous) | 2
62.1 (active) | PDE12 (phosphodiesterase 12) | Rucaparib | OCI-P5x (serous) | 3
48.9 (active) | PDE12 (phosphodiesterase 12) | Vehicle | OCI-C5x (clear cell) | 1
46.2 (active) | PDE12 (phosphodiesterase 12) | Vehicle | OCI-C5x (clear cell) | 2

Continued:
viability, normalised (%) | target gene | rucaparib or vehicle | cell line | technical replicate
62.1 (active) | RRM2B | Rucaparib | OCI-C5x (clear cell) | 1
51.6 (active) | RRM2B | Rucaparib | OCI-C5x (clear cell) | 2
45.5 (active) | RRM2B | Rucaparib | OCI-C5x (clear cell) | 3
73.8 (active) | RRM2B | Rucaparib | OCI-P5x (serous) | 1
90.2 | RRM2B | Rucaparib | OCI-P5x (serous) | 2
74 (active) | RRM2B | Rucaparib | OCI-P5x (serous) | 3
32.5 (active) | RRM2B | Vehicle | OCI-C5x (clear cell) | 1
43.2 (active) | RRM2B | Vehicle | OCI-C5x (clear cell) | 2
33.4 (active) | RRM2B | Vehicle | OCI-C5x (clear cell) | 3
70 (active) | RRM2B | Vehicle | OCI-P5x (serous) | 1
69.8 (active) | RRM2B | Vehicle | OCI-P5x (serous) | 2
67.5 (active) | RRM2B | Vehicle | OCI-P5x (serous) | 3
59.5 (active) | AEBP2 (AE binding protein 2) | Rucaparib | OCI-C5x (clear cell) | 1
47.1 (active) | AEBP2 (AE binding protein 2) | Rucaparib | OCI-C5x (clear cell) | 2
51.9 (active) | AEBP2 (AE binding protein 2) | Rucaparib | OCI-C5x (clear cell) | 3
68 (active) | AEBP2 (AE binding protein 2) | Rucaparib | OCI-P5x (serous) | 1
65.9 (active) | AEBP2 (AE binding protein 2) | Rucaparib | OCI-P5x (serous) | 2
66.4 (active) | AEBP2 (AE binding protein 2) | Rucaparib | OCI-P5x (serous) | 3
70.3 (active) | AEBP2 (AE binding protein 2) | Vehicle | OCI-C5x (clear cell) | 1
44.1 (active) | AEBP2 (AE binding protein 2) | Vehicle | OCI-C5x (clear cell) | 2
60.4 (active) | AEBP2 (AE binding protein 2) | Vehicle | OCI-C5x (clear cell) | 3
69.1 (active) | AEBP2 (AE binding protein 2) | Vehicle | OCI-P5x (serous) | 1
67.3 (active) | AEBP2 (AE binding protein 2) | Vehicle | OCI-P5x (serous) | 2
72 (active) | AEBP2 (AE binding protein 2) | Vehicle | OCI-P5x (serous) | 3
